Experimental data taken from patent US20120034226A1, “DIAGNOSTIC METHOD OF SKIN INFLAMMATORY DISEASE” (RIKEN, priority 2009, published 2012).
At least one compound was matched to its structure with a doubt left.

System: Socs3-deficient mice
Assay: Skin barrier destruction by shaving cream in Socs3-deficient mice
Type: in vivo, mouse

Compound: C=CC[C@@H]1/C=C(\C)C[C@H](C)C[C@H](OC)[C@H]2O[C@@](O)(C(=O)C(=O)N3CCCC[C@H]3C(=O)O[C@H](/C(C)=C/[C@@H]3CC[C@@H](O)[C@H](OC)C3)[C@H](C)[C@@H](O)CC1=O)[C@H](C)C[C@@H]2OC [FK506, FK506 (tacrolimus)]
- susceptibility of changes induced by destruction of the skin barrier (keratinous layer thickening, IL-19, IL-24, Defensine, S100A8/A9 expression, dermatitis): susceptible
